No constants are given. Whether binding was seen depends on the method and setting. Binding seen in cells or lysates may run through a third protein. Some results given as binding are weak or reduced against the parent protein; the word gives no strength. Tags and fused reporters may be left off the sequences shown.

The chains behind the UniProt entries cited, without tags or fusion partners. Where a name states a change or a piece, a line headed by the entry shows the natural chain unless it says otherwise. A line that says so, or that is headed by a name, gives the form on record, which may keep a tag or linker.
HA-tagged wild-type AtE2Fb, in vitro translated (Q9FV71, form named): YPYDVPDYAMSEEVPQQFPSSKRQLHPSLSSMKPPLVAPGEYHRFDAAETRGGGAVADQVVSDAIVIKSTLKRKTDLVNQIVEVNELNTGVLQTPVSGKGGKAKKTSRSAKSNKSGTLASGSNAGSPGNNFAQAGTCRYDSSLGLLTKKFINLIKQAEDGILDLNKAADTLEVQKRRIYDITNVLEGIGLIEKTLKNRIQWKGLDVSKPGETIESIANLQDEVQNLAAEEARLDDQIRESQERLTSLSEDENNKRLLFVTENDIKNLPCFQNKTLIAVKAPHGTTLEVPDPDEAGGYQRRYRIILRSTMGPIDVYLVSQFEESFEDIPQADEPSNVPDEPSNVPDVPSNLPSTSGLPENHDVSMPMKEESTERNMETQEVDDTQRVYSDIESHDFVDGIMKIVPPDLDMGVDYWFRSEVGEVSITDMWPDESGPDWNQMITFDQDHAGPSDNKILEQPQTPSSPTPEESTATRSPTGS

In this experiment the target is HA-tagged wild-type AtE2Fb, in vitro translated (Arabidopsis) (UniProt Q9FV71). In words: co-immunoprecipitation (anti-c-myc) of in vitro co-translated tagged proteins, SDS-PAGE autoradiography.

B1: c-myc-tagged AtDPb 182-263, in vitro translated (protein)
chain: EQKLISEEDLEQKLISEEDLGLPRTSLSDIEELKNERLSLRNRIEKKTAYSQELEEQYVGLQNLIQRNEHLYSSGNAPSGGVALPFILVQTRPHATVEVEI
B1: the binding result was “binds”.

B2: c-myc-tagged AtDPa 121-292, in vitro translated (protein)
chain: EQKLISEEDLEQKLISEEDLIIARDKKEIRWKGLPITCKKDVEEVKMDRNKVMSSVQKKAAFLKELREKVSSLESLMSRNQEMVVKTQGPAEGFTLPFILLETNPHAVVEIEISEDMQLVHLDFNSTPFSVHDDAYILKLMQEQKQEQNRVSSSSSTHHQSQHSSAHSSSSSCIASGTSGPVCWNSGSIDTR
On to B2, for which the binding result is given as “binds”.

Source of the values: patent US20080207449A1.
